For two molecules, binding results are on record in article PMC9925983.

By UniProt entry, the sequences of proteins in these tests, tags left out.
UniProt Q5EG47: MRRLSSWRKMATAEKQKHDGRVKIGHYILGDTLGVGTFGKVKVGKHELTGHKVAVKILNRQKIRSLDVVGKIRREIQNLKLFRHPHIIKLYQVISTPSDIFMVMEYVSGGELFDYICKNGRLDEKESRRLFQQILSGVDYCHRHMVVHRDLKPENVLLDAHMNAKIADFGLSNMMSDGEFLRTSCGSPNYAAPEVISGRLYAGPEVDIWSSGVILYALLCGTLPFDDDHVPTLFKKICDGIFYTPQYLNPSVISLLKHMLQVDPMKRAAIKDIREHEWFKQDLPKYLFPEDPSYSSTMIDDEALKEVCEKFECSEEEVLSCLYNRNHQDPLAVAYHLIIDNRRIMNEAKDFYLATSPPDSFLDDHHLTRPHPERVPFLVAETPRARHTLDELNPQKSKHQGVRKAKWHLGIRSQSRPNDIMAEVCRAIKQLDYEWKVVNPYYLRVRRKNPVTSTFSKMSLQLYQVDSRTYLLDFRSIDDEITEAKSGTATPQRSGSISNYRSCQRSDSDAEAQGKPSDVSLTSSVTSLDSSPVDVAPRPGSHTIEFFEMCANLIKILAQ

For this experiment, the target named is AMPK alpha 1 (mouse, endogenous in renal vascular endothelial cells) (mouse (endogenous in renal vascular endothelial cells)) (UniProt Q5EG47). The experiment is described as follows: co-IP; Co-IP western blot from renal vascular endothelial cells of WT and Klotho+/- mice; endogenous proteins; precipitating antibody not given.

These are yes or no findings as the source states them, for the method shown. In cells and extracts the contact can be indirect. Some results given as binding are weak or reduced against the parent protein; the word gives no strength.

B1: LATS1 (mouse, endogenous in renal vascular endothelial cells) (enzyme, UniProt Q8BYR2 1-1129)
chain: MKRGEKPEGYRQMRPKTFPASNYPGSSRQMLQEIRESLRNLSKPSDASKAEHNLNKMSTEDPRQVRNPPKFGTHHKALQEIRNSLLPFANETSSSRSPSEVNPQMFQDLQAAGFDEDMVIQALQKTNNRSIEAAVEFISKMSYQDPRREQMSAAAARPINATMKPGNVQHSINRKQSWKGSKESLVPQRHGPSLGENVVYRSESPNSQADVGRPLSGSGIAAFAQAHPSNGQRVNPPPPPQVRSVTPPPPPRGQTPPPRGTTPPPPSWEPSSQTKRYSGNMEYVISRISPVPPGAWQEGYPPPPLTTSPMNPPSQAQRAISSVPVGRQPIIMQSTSKFNFTPGRPGVQNGGGQSDFIVHQNVPTGSVTRQPPPPYPLTPANGQSPSALQTGASAAPPSFANGNVPQSMMVPNRNSHNMELYNINVPGLQTAWPQSSSAPAQSSPSGGHEIPTWQPNIPVRSNSFNNPLGSRASHSANSQPSATTVTAITPAPIQQPVKSMRVLKPELQTALAPTHPSWMPQPVQTVQPTPFSEGTASSVPVIPPVAEAPSYQGPPPPYPKHLLHQNPSVPPYESVSKPCKDEQPSLPKEDDSEKSADSGDSGDKEKKQITTSPITVRKNKKDEERRESRIQSYSPQAFKFFMEQHVENVLKSHQQRLHRKKQLENEMMRVGLSQDAQDQMRKMLCQKESNYIRLKRAKMDKSMFVKIKTLGIGAFGEVCLARKVDTKALYATKTLRKKDVLLRNQVAHVKAERDILAEADNEWVVRLYYSFQDKDNLYFVMDYIPGGDMMSLLIRMGIFPENLARFYIAELTCAVESVHKMGFIHRDIKPDNILIDRDGHIKLTDFGLCTGFRWTHDSKYYQSGDHPRQDSMDFSNEWGDPSNCRCGDRLKPLERRAARQHQRCLAHSLVGTPNYIAPEVLLRTGYTQLCDWWSVGVILFEMLVGQPPFLAQTPLETQMKVINWQTSLHIPPQAKLSPEASDLIIKLCRGPEDRLGKNGADEIKAHPFFKTIDFSSDLRQQSASYIPKITHPTDTSNFDPVDPDKLWSDGSEEENISDTLNGWYKNGKHPEHAFYEFTFRRFFDDNGYPYNYPKPIEYEYIHSQGSEQQSDEDDQHTSSDGNNRDLVYV
Regarding B1, the binding entry is “binds”.

B2: p-LATS1 (phosphorylated LATS1, mouse, endogenous in renal vascular endothelial cells) (enzyme, UniProt Q8BYR2 1-1129)
chain: B1 chain
modifications: phosphorylated (p-LATS1); site not given
With B2, the binding entry is given as “binds”.
